Source: US5206014A, “Synthetic nonapeptide for use as an adjuvant” (Sclavo, S.p.A., priority 1987, dated 1993)
Structures can show the parent of a compound that is named as a salt. Part of at least one peptide drawing is inferred or uncertain, most often the ends. Where a SMILES comes first, the peptide text is derived from it.

Tested on: primary response to polysaccharide of Streptococcus pneumoniae serotype 3 (SIII)
Assay: Primary antibody response to thymo-independent antigen SIII, PFC/spleen in immunized mice
Format: in vivo
Settings: for PFC/spleen, primary response to SIII: control 851
Method: More particularly, the immunostimulating activity of peptides 163-171 TFA and 163-171.HCl were assayed in the antibody response to sheep's red blood compuscles, thymo-dependent antigens and in response to the polysaccharide of Streptococcus pneumoniae serotype 3 (SIII), a thymo-independent antigen having low immunogenicity by using the method of haemolysis of plaques described by Cunningham A. J. and Szenberg (Immunology, 14, 599, 1968).
According to the invention, therefore, anti-body secreting cells of Classes IgM and IgG are determined by isolating lymphocytes from the spleen of mice immunized with SRBC and SIII antigens and treated by various methods and with various doses of peptide 163-171.TFA and peptide 163-171.HCl. To this end use has been made with identical results of inbred male C3H/HeNCr1BR mice and male and female C3H/HeJ mice weighing about 25 g. According to the invention, SRBC and SIII antigens previously dissolved in phosphate buffer (PBS) were inoculated in the mice, intravenously and intraperitoneally respectively, at a concentration of 1-2×10^8 SRBC/0.2 ml of PBS and 0.5 μg/0.5 ml of PBS.
The procedure was the same as in Example 1: intraperitoneal inoculation with 0.5 ml of PBS containing 0.5 μg of polysaccharide of Streptococcus pneumoniae serotype 3 SIII (obtained from Phillips J. Baker NIAID, NIH, Bethesda) and, after two hours, with peptide 163-171.TFA and human interleukin 1-β.
After five days the mice were killed and the splenocytes were isolated from the spleen repeatedly washed and resuspended in MEM culture medium.
The adjuvant activity of peptide 163-171.TFA and of human IL-1-β were then determined as in Example 1 by using 25 μl of a 10% suspension of SIII antigen conjugated with SRBC by chromium chloride in PBS (Baker P. J. et al. Appl. Microbiol. 17, 422 (1969)). By this method, 0.5 ml of sedimented SRBC were resuspended in 1 ml of saline solution containing 1 mg of SIII and 0.1 ml of a 0.1 solution of chromium chloride (Sigma Chemical Co, St. Louis) were then added to the first solution. The resulting mixture was kept under gentle agitation at ambient temperature (20°-25° C.) for 5 minutes.
The procedure was the same as in Example 5, i.e. intravenous inoculation of the preparations of the two peptides in concentrations from 1 pg to 100 pg/kg.

Compound | Doses giving significant increases in the primary response to SIII (intravenous) | PFC/spleen (% control), primary response to SIII (intravenous, 1 pg/kg) | PFC/spleen, primary response to SIII (intravenous, 1 pg/kg) | PFC/spleen (% control), primary response to SIII (intravenous, 10 pg/kg) | PFC/spleen, primary response to SIII (intravenous, 10 pg/kg) | PFC/spleen (% control), primary response to SIII (intravenous, 100 pg/kg) | PFC/spleen, primary response to SIII (intravenous, 100 pg/kg) | Dose of maximum increase in PFC/spleen, primary response to SIII (intraperitoneal) | Activity on the primary response to SIII (intravenous, 1-100 pg/kg)
CC(C)[C@H](N)C(=O)N[C@@H](CCC(N)=O)C(=O)NCC(=O)N[C@@H](CCC(=O)O)C(=O)N[C@@H](CCC(=O)O)C(=O)N[C@@H](CO)C(=O)N[C@@H](CC(N)=O)C(=O)N[C@@H](CC(=O)O)C(=O)N[C@@H](CCCCN)C(=O)O [peptide 163-171.HCl, Val-Gln-Gly-Glu-Glu-Ser-Asn-Asp-Lys-X] (H-VQGEESNDK-OH) | 1 to 100 pg/kg | 139.0% | 1,183 PFC/spleen | 171.0% | 1,455 PFC/spleen | 197.2% | 1,678 PFC/spleen |  | 
CC(C)[C@H](N)C(=O)N[C@@H](CCC(N)=O)C(=O)NCC(=O)N[C@@H](CCC(=O)O)C(=O)N[C@@H](CCC(=O)O)C(=O)N[C@@H](CO)C(=O)N[C@@H](CC(N)=O)C(=O)N[C@@H](CC(=O)O)C(=O)N[C@@H](CCCCN)C(=O)O [peptide 163-171.TFA, Val-Gln-Gly-Glu-Glu-Ser-Asn-Asp-Lys-X] (H-VQGEESNDK-OH) |  | 86.3% | 734 PFC/spleen | 91.2% | 776 PFC/spleen | 91.9% | 782 PFC/spleen | 100 mg/kg | inactive
